{
  "source": "patent US9128097B2",
  "about": "“Method and kit for assessing viable cells” (ChemoMetec A/S, priority 2008, dated 2015)",
  "test": "Fluorescence spectra of maleimide with -SH reagents (spectrofluorophotometer)",
  "type": "physicochemical",
  "settings": "for fluorescence on mixing with GSH: 0.33 μg/mL compound with GSH 167 μg/mL; for fluorescence on mixing with GSSG: 0.33 μg/mL compound with GSSG 167 μg/mL; for fluorescence of the compound alone: 0.33 μg/mL in distilled water",
  "data": [
    {"smiles": "O=C1C=CC(=O)N1c1c2ccccc2nc2ccccc12", "note": "[NAM, N-(9-acridinyl)maleimide]", "values": [
      {"measurement": "fluorescence on mixing with DTT", "setting": "0.33 μg/mL compound with DTT 167 μg/mL", "value": "strong synergistic effect with respect to fluorescence"},
      {"measurement": "fluorescence on mixing with GSH", "value": "strong synergistic effect with respect to fluorescence"},
      {"measurement": "fluorescence on mixing with GSSG", "value": "not GSSG"},
      {"measurement": "fluorescence of the compound alone", "value": "very weak fluorescence"}
    ]},
    {"smiles": "O=C1C=CC(=O)N1c1ccc2ccc3cccc4ccc1c2c34", "note": "[PM, N-(1-Pyrenyl)maleimide]", "values": [
      {"measurement": "fluorescence on mixing with GSH", "value": "strong synergistic effect with respect to fluorescence"},
      {"measurement": "fluorescence on mixing with GSSG", "value": "not GSSG"},
      {"measurement": "fluorescence of the compound alone", "value": "very weak fluorescence"}
    ]}
  ]
}
